In patent US20220033519A1 (NATIONAL RESEARCH COUNCIL OF CANADA, published 2022):
No constants are given. Whether binding was seen depends on the method and setting. Some binding calls cover weakened binding; strength is not graded here. Where a sequence is shown, tags or fusion partners need not be part of it.

Target: T1, soluble and secreted FUT8 (sFUT8) enzyme (aa 87-575; UniProtKB #Q9BYC5) with C-terminal polyhistidine tag (UniProt Q9BYC5)
T1 sequence: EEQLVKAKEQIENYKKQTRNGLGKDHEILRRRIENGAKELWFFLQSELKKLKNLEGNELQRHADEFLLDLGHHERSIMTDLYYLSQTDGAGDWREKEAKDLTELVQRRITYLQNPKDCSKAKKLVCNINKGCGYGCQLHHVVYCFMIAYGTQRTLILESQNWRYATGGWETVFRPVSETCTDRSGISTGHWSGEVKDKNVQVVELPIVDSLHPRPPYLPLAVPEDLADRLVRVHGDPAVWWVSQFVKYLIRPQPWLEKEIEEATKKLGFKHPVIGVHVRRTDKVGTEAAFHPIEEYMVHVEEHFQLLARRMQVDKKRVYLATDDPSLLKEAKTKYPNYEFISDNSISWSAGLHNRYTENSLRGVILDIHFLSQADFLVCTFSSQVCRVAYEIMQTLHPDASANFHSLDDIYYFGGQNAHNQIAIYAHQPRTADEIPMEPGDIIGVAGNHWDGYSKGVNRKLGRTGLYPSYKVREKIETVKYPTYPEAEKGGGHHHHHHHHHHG
Assay: ELISA, sFUT8 coated on the plate

Binder | binding
anti-FUT8 monoclonal antibody 1H9 (hybridoma) (antibody, V domains shown) VH: EVQLQQSGPELVKPGASVKMSCKASGYIFTDYVMHWVKQSNGKSLEWIGYINPYNDYSNYNQKFKGKATLTVDKSSNTAYMQLNSLTSEDSAVYFCARSGDVWLAYWGQGTLVTISA VL: DIVLTQSPASLAISLGQRATISCRASKSVSTSGYSYMHWYQQKPGQPPRLLIYLASNLESGVPARFSGSGSGTDFTLNIHPVEEEDGATYYCQHSRELPWTFGGGT | binds
anti-FUT8 monoclonal antibody 1D2 (hybridoma) (antibody, V domains shown) VH: QVQLKESGPGLVAPSQSLSITCTVSGFSLTGYGVNWVRQPPGKGLEWLGMIWGDGSTDYNSALKSRLSISKDNSKSQVFLKMNSLQTDDTASYYCARDFYDGYLYAMDYWGQGTSVTVSSAS VL: DIVMTQSQKFMSTSLGDRVSVTCKASQNVGSYVAWYQQKPGQSPKALIYSASYRYSGVPDRFAGSGSGTDFTLTISNVQSEDLAEYFCQQYYTYPYTFGGGTWSTRLASWAFRSL | binds
